Measured values from PubChem BioAssay AID652016 (National Center for Advancing Translational Sciences (NCATS), 2013).
Inconclusive results, whose numbers are uncertain, are shown with a selection of clear calls. Potencies of inconclusive entries are doubtful fits and often do not repeat. Active and inactive are the calls of the source. Calls follow the shape of the dose curve; as a rule, active = well fitted inhibition curve with a large enough effect; inconclusive = small, poorly fitted or top-dose-only effect; inactive = flat fitted curve, though single readings scatter.

The chains behind the UniProt entries cited, without tags or fusion partners.
UniProt P08659, whole entry, looked up: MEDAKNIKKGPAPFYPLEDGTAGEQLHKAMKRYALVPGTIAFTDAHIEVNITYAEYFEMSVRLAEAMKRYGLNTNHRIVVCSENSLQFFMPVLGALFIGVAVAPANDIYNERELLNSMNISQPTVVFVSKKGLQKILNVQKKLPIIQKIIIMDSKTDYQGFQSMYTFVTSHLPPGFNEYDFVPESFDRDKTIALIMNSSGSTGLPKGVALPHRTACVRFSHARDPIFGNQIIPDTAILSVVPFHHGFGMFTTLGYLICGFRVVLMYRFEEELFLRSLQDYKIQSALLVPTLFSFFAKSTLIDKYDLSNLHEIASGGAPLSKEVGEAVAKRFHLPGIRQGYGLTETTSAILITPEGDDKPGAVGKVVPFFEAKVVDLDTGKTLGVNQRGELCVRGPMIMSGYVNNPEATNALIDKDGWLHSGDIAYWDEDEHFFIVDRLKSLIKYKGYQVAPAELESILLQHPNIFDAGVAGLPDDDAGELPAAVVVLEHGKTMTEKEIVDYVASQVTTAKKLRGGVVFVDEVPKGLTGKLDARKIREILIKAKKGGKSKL

target: Luciferin 4-monooxygenase (Photinus pyralis) (UniProt P08659); experiment: qHTS Assay for Inhibitors of Firefly Luciferase from the GSK Published Protein Kinase Inhibitor Set; conditions: purified firefly luciferase, luminescence inhibition; series mostly up to 57.5 µM; activity change, negative = inhibition: at the top concentration
Method in brief: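 Purified P. pyralis luciferase, 10nM, with 10uM D-luciferin and 10uM ATP in 50mM Tris acetate pH 7.5, 10mM Mg acetate, 0.01% Tween-20, 0.05% BSA. Titration ~60uM to 300pM; luminescence read after about 5 min.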
% is scaled to controls: 0 for no effect and ±100 for the full control effect; potency is read from the fitted curve at half-maximal effect.

Compound	activity change, negative = inhibition	Potency
CN1CCC(n2cnc(-c3ccc(F)cc3)c2-c2ccnc(Nc3ccccc3)n2)CC1	inactive: 3.59%	–
COc1cccc(-c2c[nH]c3c(NN=Cc4ccncc4)ncnc23)c1	–	active: 5.8 µM
O=C(OC1CNC(C#Cc2cc3ncnc(Nc4ccc5c(cnn5Cc5ccccc5)c4)c3s2)C1)N1CCOCC1 (centres undefined)	–	inconclusive: 18.3 µM [inhibitor, partial curve]
CN1CCN(C(=O)c2ccc(NC(=O)Nc3ccc(N(C)c4ccnc(Nc5ccc(CS(C)(=O)=O)cc5)n4)cc3)cc2)CC1	–	inconclusive: 9.19 µM [inhibitor, partial curve]
CS(=O)(=O)CCNCc1cc(-c2cc3c(Nc4ccc(OCc5cccc(F)c5)c(Cl)c4)ncnc3s2)cs1	inactive: -10.2%	–
N#Cc1c(NC(=O)c2ccccc2F)sc2c1CCCC2	–	active: 0.819 µM
Fc1ccc(-c2nn3ccccc3c2-c2ccncc2)cc1	–	active: 1.16 µM
COc1ccc2cc(-c3c(-c4ccncc4)nc(-c4ccc(S(C)(=O)=O)cc4C)n3C)ccc2c1	inactive: -2.8%	–
Cc1cc(O)cc(C)c1C=Cc1cncc(-c2nn[nH]n2)c1	–	inconclusive: 29.1 µM [inhibitor, single point]
COc1cc(C=NNc2ncnc3c2cnn3C(C)C)ccc1O	–	inconclusive: 5.8 µM [inhibitor, full curve]
NC(=O)c1cc(-c2ccncc2)cc(-c2ccccc2)c1N	–	inconclusive: 41.1 µM [inhibitor, single point]
Nc1nccc(C#Cc2cncnc2Nc2ccc(OCc3cccc(F)c3)c(Cl)c2)n1	–	inconclusive: 14.6 µM [inhibitor, partial curve, poor fit]
CC(=Nc1ccc(S(N)(=O)=O)cc1)c1c(O)[nH]c2ccccc12	–	active: 3.66 µM
COc1ccc(Nc2ncc(-c3ccccc3)o2)cc1OC	–	active: 5.8 µM
CNC(=O)c1cncc(C=Cc2c(C)cccc2C)c1	–	inconclusive: 20.6 µM [inhibitor, partial curve]
COc1cccc(-n2cnc3c(NN=Cc4ccncc4)ncnc32)c1	–	inconclusive: 16.3 µM [inhibitor, partial curve]
CC(C)c1ccc(Nc2nccc(-c3cnn4ncccc34)n2)cc1	–	inconclusive: 20.6 µM [inhibitor, partial curve]
COC(=O)c1ccc2c(c1)/C(=C/c1cc(Br)c(O)c(Br)c1)C(=O)N2	–	active: 20.6 µM
O=C(Nc1ccc(Oc2ccc3nc(NC(=O)c4ccco4)[nH]c3c2)cc1)Nc1cc(C(F)(F)F)ccc1F	–	inconclusive: 20.6 µM [inhibitor, partial curve, poor fit]
COc1ccc(-c2cc(-c3cn[nH]c3-c3ccccn3)ccn2)cc1	–	inconclusive: 16.3 µM [inhibitor, partial curve]
COc1cc(Nc2ncc(-c3ccccc3)o2)cc(OC)c1	–	active: 6.51 µM
N#Cc1cccc(Nc2ncc(-c3ccccc3)o2)c1	–	active: 1.03 µM
O=C1N=c2ccc(N=Cc3c(O)[nH]c4ccccc34)cc2=N1	–	inconclusive: 4.11 µM [inhibitor, full curve]
c1cnn2ncc(-c3ccnc(NCCCN4CCOCC4)n3)c2c1	–	inconclusive: 41.1 µM [inhibitor, single point]
COc1cccc(-n2ncc3c(NN=Cc4cccc(F)c4)ncnc32)c1	–	inconclusive: 18.3 µM [inhibitor, partial curve, poor fit]
O=C(Nc1n[nH]c2nc(-c3ccco3)c(Br)cc12)C1CC1	–	inconclusive: 20.6 µM [inhibitor, partial curve]
COc1cccc(-n2ncc3c(NN=Cc4ccc(F)cc4)ncnc32)c1	–	inconclusive: 32.6 µM [inhibitor, single point]
COc1ccc(-c2ccc3c(NC(=O)C4CC4)n[nH]c3n2)cc1	–	inconclusive: 2.31 µM [inhibitor, full curve]
COc1cc2ncn(-c3cc(OCc4ccccc4C(F)(F)F)c(C(=O)N(C)C)s3)c2cc1OC	inactive: 6.24%	–

Part of the list above in another layout.
Compound,"activity change, negative = inhibition",Potency
O=C(Nc1ccc(Oc2ccc3nc(NC(=O)c4ccco4)[nH]c3c2)cc1)Nc1cc(C(F)(F)F)ccc1F,–,"inconclusive: 20.6 µM [inhibitor, partial curve, poor fit]"
COc1ccc(-c2cc(-c3cn[nH]c3-c3ccccn3)ccn2)cc1,–,"inconclusive: 16.3 µM [inhibitor, partial curve]"
